The list shows a part of the results.

The chains behind the UniProt entries cited, without tags or fusion partners.
UniProt Q0JBA9, entry or part of it: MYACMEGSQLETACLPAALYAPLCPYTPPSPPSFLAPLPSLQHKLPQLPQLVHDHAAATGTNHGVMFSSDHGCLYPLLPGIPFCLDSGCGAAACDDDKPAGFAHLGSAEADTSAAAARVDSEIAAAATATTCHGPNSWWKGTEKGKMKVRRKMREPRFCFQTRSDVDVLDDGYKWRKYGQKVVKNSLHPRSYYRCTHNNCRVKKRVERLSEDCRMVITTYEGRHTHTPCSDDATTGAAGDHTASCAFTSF

In the assay the target is OsWRKY34 (Oryza sativa, UniProt Q0JBA9 1-250). Briefly: protein-binding microarray (RPBM); PBS, 2% BSA, 51.3 ng/ul salmon testes DNA, 50 uM zinc acetate, 200 nM TF, 25 C, 1 h; high values mean tight binding. The conditions noted are these: protein: recombinant; tags: N-terminal polyhistidine and DsRed monomer fusion (pET32a); label: CyDye5-dUTP incorporated in the synthesized complementary strand; 3' TTTTT single-stranded linker to array surface; dsDNA, one strand shown. The method, boiled down:
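The binding signal for each feature is its fluorescence intensity in arbitrary units. An Axon 4000B scanner was used to read a custom Agilent array that had been made double-stranded with Cy5-dUTP primer extension, blocked with 2% BSA, incubated at 25 °C for 1 h with 200 nM protein in PBS, 2% BSA, salmon testes DNA and 50 µM zinc acetate, and washed. The protein was an N-terminal polyhistidine–DsRed transcription factor fusion from E. coli BL21-CodonPlus, purified on Ni–NTA.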
For the sequence “TGTGGCGTGCGTCGCATGGTGGAGGGAGGGACAGAGATGTCGGAGTCACCTAGTGCAG”, the binding signal is 8480 fluorescence intensity (a.u.).

“GGCTGAACCAATCTATCCCCGTGCTCGCTGTGAGGCCATTCGGAGTCACCTAGTGCAG”: the binding signal is 8620 fluorescence intensity (a.u.).

As to “ACGTCCAAATCACATTATATCAGTTCCTGTTTGTAACCGCCGGAGTCACCTAGTGCAG”, the binding signal was 8550 fluorescence intensity (a.u.).

As to “TTGGAGGCGCCGCGGCCGATACAGGGCGGGGTGCGGTTAGCGGAGTCACCTAGTGCAG”, the binding signal is 9550 fluorescence intensity (a.u.).

Turning to “TATATATATGGTCCTTCGTGTACATGTTTCCCTGATTTTCCGGAGTCACCTAGTGCAG”, the binding signal was 10700 fluorescence intensity (a.u.).

For “AATCCCAATTGCTTATTCTCCTTCGACAAGCCGGCCACCGCGGAGTCACCTAGTGCAG”, the binding signal is 8740 fluorescence intensity (a.u.).

Take “GACGCGGCCGCCTCCCCTACCCCGCGCCACGCCAATCCATCGGAGTCACCTAGTGCAG”: the binding signal is 8610 fluorescence intensity (a.u.).

For the sequence “CGGCCTGTTCCCAACGCTGTTCAGTATGGCAGTCACCCTTCGGAGTCACCTAGTGCAG”, the binding signal was 10000 fluorescence intensity (a.u.).

Turning to “TTCCACTCTCACCGGCCACCGCGCGCTCTCTCTCTCTCTCCGGAGTCACCTAGTGCAG”, the binding signal is 8140 fluorescence intensity (a.u.).

Consider “GGGTGCTGGGGCTTTGGCTGCCTTGACTTGGATTGCCTTCCGGAGTCACCTAGTGCAG”, for which the binding signal is 8640 fluorescence intensity (a.u.).

“TGGTCCGTGGCAGCTACGGCGGCGAGGTGGGGAGGAGACACGGAGTCACCTAGTGCAG”: the binding signal was 9310 fluorescence intensity (a.u.).

Turning to “GAATGTTGGTGGTTGGTTATGTGTGTACAAATCCAAATTACGGAGTCACCTAGTGCAG”, the binding signal was 8060 fluorescence intensity (a.u.).

Take “TGGTCAGGCGGCATGTGATCGAGGCCGGTTTTGGTTTGACCGGAGTCACCTAGTGCAG”: the binding signal was 8950 fluorescence intensity (a.u.).

Turning to “AACCATGCATCCACATGGACCTACCTAACCCAACCGGACGCGGAGTCACCTAGTGCAG”, the binding signal is 8520 fluorescence intensity (a.u.).

For the sequence “CTGATTTTCATTTGAGAACAAAGTTTCTACGCATATTACCCGGAGTCACCTAGTGCAG”, the binding signal was 8240 fluorescence intensity (a.u.).

Regarding “GCCTATGATTTGGTTATACTTCAGTTCAGAGTGTCTCGATCGGAGTCACCTAGTGCAG”, the binding signal was 9880 fluorescence intensity (a.u.).

Turning to “CAGCGAGATTAAGGGACAGTAACTCCCACTGCTAAGCAAGCGGAGTCACCTAGTGCAG”, the binding signal is 11400 fluorescence intensity (a.u.).

Turning to “CTTTCCTACACACATAAACTTCCAACTTTTCCATCACATCCGGAGTCACCTAGTGCAG”, the binding signal is 11400 fluorescence intensity (a.u.).

For the sequence “CTTCTGGAGGCGCGCTGCTCTTCGCGGCATCTCAATTCCCCGGAGTCACCTAGTGCAG”, the binding signal is 8560 fluorescence intensity (a.u.).

“TATACATTTGTATCAGTCGTCATACCCTGCATTCCTTAAACGGAGTCACCTAGTGCAG”: the binding signal is 8090 fluorescence intensity (a.u.).

Consider “GCTTGTCGTGCTCACACACCCAGCTAGCCTTTTTTCCTCCCGGAGTCACCTAGTGCAG”, for which the binding signal is 8390 fluorescence intensity (a.u.).

“ACCTGCTATGTAACTTATATTATTTAACTGGTAATTGGTCCGGAGTCACCTAGTGCAG”: the binding signal is 8940 fluorescence intensity (a.u.).

Consider “TATGTGGTTCTTCGTCATCACACGTTCAGTTCTATCCAAACGGAGTCACCTAGTGCAG”, for which the binding signal was 9940 fluorescence intensity (a.u.).

“GGCTGAGTTTTCTGTGTGTTGGCATCTTGCAACTGTCGAGCGGAGTCACCTAGTGCAG”: the binding signal was 10000 fluorescence intensity (a.u.).

In the case of “GAGCTAGCTAGTGTCCTCCTGCATCGCCCCGTCCACCACCCGGAGTCACCTAGTGCAG”, the binding signal is 8360 fluorescence intensity (a.u.).

Consider “AACAATCCAGTAGCAACATGGTTAATCTCAATCATTTTTTCGGAGTCACCTAGTGCAG”, for which the binding signal was 8390 fluorescence intensity (a.u.).

For the sequence “ATTTCTTTCTTTACATCGTCTCTTTCTTGATTTCCCAATCCGGAGTCACCTAGTGCAG”, the binding signal is 10200 fluorescence intensity (a.u.).

As for “GTTTTCACGGTAATTACTGGCTCTTTTTACTCAACAATCTCGGAGTCACCTAGTGCAG”, the binding signal is 9460 fluorescence intensity (a.u.).

In the case of “TACTGTCTTGGCCTATCACAGAGCCGCTTCCATTTCCATCCGGAGTCACCTAGTGCAG”, the binding signal was 9530 fluorescence intensity (a.u.).

Consider “CTCCGCTGCCGCTATCCCCGCCTCGCGCCGCGCCACCATGCGGAGTCACCTAGTGCAG”, for which the binding signal is 8150 fluorescence intensity (a.u.).

For the sequence “GGAGGGCGGGCTGTTATATTCTTCACACCTTGCATGTAAGCGGAGTCACCTAGTGCAG”, the binding signal is 18700 fluorescence intensity (a.u.).

As for “ATCCGCCGTGTTATTATCTCTTTTCCGGCCCCGAACTGTTCGGAGTCACCTAGTGCAG”, the binding signal was 9710 fluorescence intensity (a.u.).

Regarding “ATGATGATGATTTTTTGCCTTGCTTTGCTGATGCTCCTCCCGGAGTCACCTAGTGCAG”, the binding signal is 8730 fluorescence intensity (a.u.).

With “ATTCCCGCATCCGCATCCCGCATCCCGCCTGGTTTGTGATCGGAGTCACCTAGTGCAG”, the binding signal was 12200 fluorescence intensity (a.u.).

Turning to “ATGAATCTATTATTATGTTTTTGTGATGCTGTGATGTTCCCGGAGTCACCTAGTGCAG”, the binding signal is 10000 fluorescence intensity (a.u.).

With “GGGGTGGGCTGTTCGTGGGCCTCTCCCCACGTTGCGATGCCGGAGTCACCTAGTGCAG”, the binding signal was 9080 fluorescence intensity (a.u.).

As to “GTTTATGTGGGCCCCACTATTCTTTTTTATTATTGTGTGTCGGAGTCACCTAGTGCAG”, the binding signal is 8660 fluorescence intensity (a.u.).

On to “CTCCATGTTGGATGTGGCTCATCTCTCCGCCGCTCACTACCGGAGTCACCTAGTGCAG”, for which the binding signal was 9030 fluorescence intensity (a.u.).

For the sequence “ATTCCACTCTCTCTTCCCTTACTCAAATTGTTCTGGAAATCGGAGTCACCTAGTGCAG”, the binding signal is 8300 fluorescence intensity (a.u.).

“GTCTTCCCCACATTGGCTCTCATCGCTCTGACGGTATCTTCGGAGTCACCTAGTGCAG”: the binding signal was 8320 fluorescence intensity (a.u.).

For “TAAGTTCAGGTGGGTTTCTTTCTTTTGTGCAAATTTAAGTCGGAGTCACCTAGTGCAG”, the binding signal is 9010 fluorescence intensity (a.u.).

As to “ATTTTGTTTAGGCTTAGATTTGCTGTCTTTGGCTTTAAGTCGGAGTCACCTAGTGCAG”, the binding signal was 10300 fluorescence intensity (a.u.).

These data come from PMC7819943, “Rice protein-binding microarrays: a tool to detect cis-acting elements near promoter regions in rice”.
